Laboratory results published in paper PMC11751453.
No constants are given. Whether binding was seen depends on the method and setting. Binding seen in cells or lysates may run through a third protein. Some binding calls cover weakened binding; strength is not graded here.

Chains of the proteins cited; added tags and fusions are not shown. Residues count along the entry.
UniProt P19438, residues 30-455: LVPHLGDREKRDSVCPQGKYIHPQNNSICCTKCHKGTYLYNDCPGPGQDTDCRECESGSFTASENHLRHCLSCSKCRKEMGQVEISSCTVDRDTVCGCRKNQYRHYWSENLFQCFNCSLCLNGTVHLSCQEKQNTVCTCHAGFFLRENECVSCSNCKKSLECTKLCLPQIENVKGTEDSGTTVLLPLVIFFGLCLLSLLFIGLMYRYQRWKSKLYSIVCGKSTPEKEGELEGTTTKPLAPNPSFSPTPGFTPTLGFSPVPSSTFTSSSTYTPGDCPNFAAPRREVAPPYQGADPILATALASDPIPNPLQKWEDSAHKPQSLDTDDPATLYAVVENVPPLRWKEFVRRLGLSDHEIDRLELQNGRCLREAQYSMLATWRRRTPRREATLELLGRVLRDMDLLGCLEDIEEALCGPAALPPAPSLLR

How the values were obtained:
[1] = target: T1, CD95 (Apo1/Fas) (human (endogenous in HCT116-PIK3CAmut)), P25445; assay: co-IP; CD95 signaling complex (DISC): HCT116-PIK3CAmut parental, TRAF2KO, RIPK1KO and TRAF2/RIPK1DKO cells stimulated with 1 µg/ml Fc-CD95L for 90 min, lysed (30 mM Tris HCl pH 7.5, 120 mM NaCl, 1% Triton X-100, 10% glycerol), protein G agarose overnight at 4 °C, western blot of co-precipitated proteins; conditions: remark: other sources report otherwise
T1 chain: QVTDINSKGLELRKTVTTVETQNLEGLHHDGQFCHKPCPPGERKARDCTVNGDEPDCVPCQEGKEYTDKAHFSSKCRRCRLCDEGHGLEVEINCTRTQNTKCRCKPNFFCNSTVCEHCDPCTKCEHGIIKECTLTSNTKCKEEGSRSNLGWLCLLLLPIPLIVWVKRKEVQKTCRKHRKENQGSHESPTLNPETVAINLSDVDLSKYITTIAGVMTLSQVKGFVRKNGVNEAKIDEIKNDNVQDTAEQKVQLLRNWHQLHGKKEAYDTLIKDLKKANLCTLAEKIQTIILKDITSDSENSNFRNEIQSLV

[2] = target: CD95 (Apo1/Fas) (human (endogenous in HCT116-PIK3CAmut)) (UniProt P25445); assay: co-IP; as a3, the parental HCT116-PIK3CAmut cells only (RIPK1 expressed)
[3] = target: CD95 (Apo1/Fas) (human (endogenous in HCT116-PIK3CAmut)) (UniProt P25445); assay: co-IP; CD95 signaling complex (DISC): HCT116-PIK3CAmut parental, TRAF2KO, RIPK1KO and TRAF2/RIPK1DKO cells stimulated with 1 µg/ml Fc-CD95L for 90 min, lysed (30 mM Tris HCl pH 7.5, 120 mM NaCl, 1% Triton X-100, 10% glycerol), protein G agarose overnight at 4 °C, western blot of co-precipitated proteins
[4] = target: TNFR1 (human (endogenous in HCT116-PIK3CAmut)) (UniProt P19438); assay: co-IP; TNFR1 signaling complex: HCT116-PIK3CAmut parental, TRAF2KO, RIPK1KO and TRAF2/RIPK1DKO cells stimulated with 1 µg/ml Fc-TNF for 10 min, lysed (30 mM Tris HCl pH 7.5, 120 mM NaCl, 1% Triton X-100, 10% glycerol), protein G agarose overnight at 4 °C, western blot of co-precipitated proteins

B1: caspase-8, Q14790 1-479 (enzyme)
chain: MDFSRNLYDIGEQLDSEDLASLKFLSLDYIPQRKQEPIKDALMLFQRLQEKRMLEESNLSFLKELLFRINRLDLLITYLNTRKEEMERELQTPGRAQISAYRVMLYQISEEVSRSELRSFKFLLQEEISKCKLDDDMNLLDIFIEMEKRVILGEGKLDILKRVCAQINKSLLKIINDYEEFSKERSSSLEGSPDEFSNGEELCGVMTISDSPREQDSESQTLDKVYQMKSKPRGYCLIINNHNFAKAREKVPKLHSIRDRNGTHLDAGALTTTFEELHFEIKPHDDCTVEQIYEILKIYQLMDHSNMDCFICCILSHGDKGIIYGTDGQEAPIYELTSQFTGLKCPSLAGKPKVFFIQACQGDNYQKGIPVETDSEEQPYLEMDLSSPQTRYIPDEADFLLGMATVNNCVSYRNPAEGTWYIQSLCQSLRERCPRGDDILTILTEVNYEVSNKDDKKNMGKQMPQPTFTLRKKLVFPSD
[1]
  binding: binds

B2: Fas-associated death domain (FADD), Q13158 1-208 (protein)
chain: MDPFLVLLHSVSSSLSSSELTELKFLCLGRVGKRKLERVQSGLDLFSMLLEQNDLEPGHTELLRELLASLRRHDLLRRVDDFEAGAAAGAAPGEEDLCAAFNVICDNVGKDWRRLARQLKVSDTKIDSIEDRYPRNLTERVRESLRIWKNTEKENATVAHLVGALRSCQMNLVADLVQEVQQARDLQNRSGAMSPMSWNSDASTSEAS
[1]
  binding: binds

B3: TRADD (protein, UniProt Q15628 1-312)
chain: MAAGQNGHEEWVGSAYLFVESSLDKVVLSDAYAHPQQKVAVYRALQAALAESGGSPDVLQMLKIHRSDPQLIVQLRFCGRQPCGRFLRAYREGALRAALQRSLAAALAQHSVPLQLELRAGAERLDALLADEERCLSCILAQQPDRLRDEELAELEDALRNLKCGSGARGGDGEVASAPLQPPVPSLSEVKPPPPPPPAQTFLFQGQPVVNRPLSLKDQQTFARSVGLKWRKVGRSLQRGCRALRDPALDSLAYEYEREGLYEQAFQLLRRFVQAEGRRATLQRLVEALEENELTSLAEDLLGLTDPNGGLA
[2]
  binding: binds weakly
[3]
  binding: binds
[4]
  binding: binds
